Data as given in ChEMBL document CHEMBL3774357, “Discovery of potent and selective CDK8 inhibitors from an HSP90 pharmacophore” (Bioorg Med Chem Lett, 2016).
Converted amounts (≈) assume the structure as drawn.

Experiment: physchem

Row | SMILES | solubility kinetic [µM]
1 | Cn1ncc2cc(Cc3n[nH]c4ccc(C(=O)N5CC(O)C5)cc34)ccc21 | > 200
2 | Cn1cc(-c2ccc(Cc3n[nH]c4ccc(C(=O)N5CCCC5)cc34)cc2)cn1 | 164 (≈ 63.2 µg/mL)
